The source of these data is paper PMC5722986.

The target in this experiment is T1, FcγRI (CD64) (mouse (endogenous in Raw264.7)) (UniProt P26151).
T1 sequence: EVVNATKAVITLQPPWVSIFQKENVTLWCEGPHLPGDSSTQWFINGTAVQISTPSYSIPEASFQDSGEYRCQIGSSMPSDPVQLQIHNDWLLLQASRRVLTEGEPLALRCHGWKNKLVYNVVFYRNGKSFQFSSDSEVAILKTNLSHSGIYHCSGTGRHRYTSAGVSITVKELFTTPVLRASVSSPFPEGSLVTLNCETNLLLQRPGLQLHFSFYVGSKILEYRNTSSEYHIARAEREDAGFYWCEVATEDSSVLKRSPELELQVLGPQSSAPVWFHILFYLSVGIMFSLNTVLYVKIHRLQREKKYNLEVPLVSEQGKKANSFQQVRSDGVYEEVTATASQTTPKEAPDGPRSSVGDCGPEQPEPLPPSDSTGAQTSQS
Nature of the experiment: co-IP; Raw264.7 cells lysed in RIPA buffer; homogenates incubated with protein G beads pre-absorbed with anti-CD64 antibody; pre- and post-IP supernatants and beads blotted for GPER1.

No constants are given. Whether binding was seen depends on the method and setting. Binding seen in cells or lysates may run through a third protein.

B1: G protein-coupled estrogen receptor 1 (receptor, UniProt Q8BMP4 1-375)
chain: MDATTPAQTVGVEIYLGPVWPAPSNSTPLALNLSLALREDAPGNLTGDLSEHQQYVIALFLSCLYTIFLFPIGFVGNILILVVNISFREKMTIPDLYFINLAAADLILVADSLIEVFNLDEQYYDIAVLCTFMSLFLQINMYSSVFFLTWMSFDRYLALAKAMRCGLFRTKHHARLSCGLIWMASVSATLVPFTAVHLRHTEEACFCFADVREVQWLEVTLGFIMPFAIIGLCYSLIVRALIRAHRHRGLRPRRQKALRMIFAVVLVFFICWLPENVFISVHLLQWTQPGDTPCKQSFRHAYPLTGHIVNLAAFSNSCLNPLIYSFLGETFRDKLRLYVEQKTSLPALNRFCHATLKAVIPDSTEQSEVRFSSAV
On to B1, for which the binding entry was “no binding”.
